In article PMC12040169 (PLOS Biology, 2025):
The other results are listed elsewhere or left out.

Each molecule was assayed on T1, CTL2-GFP (C. trachomatis L2/434/Bu, GFP-expressing). Settings: bulk GFP, single well; 28.5 h, 10 µM; inhibitor.
T1 construct: L2/434/Bu, GFP-expressing
Design: species or system HeLa; Intracellular C. trachomatis growth in HeLa cells, bulk GFP fluorescence relative to DMSO

| SMILES | % of control remaining |
| --- | --- |
| CCC1CCCCN1C(=O)c1cc2ccccc2o1 (centres unmarked) [CBK078549] | 106.222% |
| O=C(NC1CCCCC1)c1csc(-c2ccncc2)n1 [CBK288591] | 122.75% |
| O=C1C2(c3ccccc3)CN(CCCO)CC1(c1ccccc1)CN(CCCO)C2 [CBK265912] | 114.414% |
| N#Cc1ccc(S(=O)(=O)N2CCC(OCc3ccncc3)C2)cn1 (centres unmarked) [CBK305478] | 111.545% |
| CC(C)(N)CNC(=O)c1cc(C(C)(C)C)nn1Cc1ccc(Cl)cc1Cl [CBK107296] | 34.953% |
| OCCCNc1cc(Nc2ccccc2)n2nccc2n1 [CBK037078] | 155.838% |
| CCN(C)c1c(C)nc2c(OCc3ccccc3C(=O)OC)cccn12 [CBK147321] | 110.875% |
| CC(=O)NCC(=O)N1CCC2(C/C=C/CNC(=O)c3ccccc3OCCNC2=O)CC1 [CBK292006] | 117.855% |
| COc1ccccc1C(=O)Nc1ccc(Cl)c(C(=O)O)c1 [CBK287034] | 154.343% |
| CC1(C#N)CCCN(Cc2c[nH]nc2C(=O)O)C1 (centres unmarked) [CBK307010] | 145.52% |
| COc1ccc(/C=C/C2=CCN(C)CC2)cc1Cn1cccn1 [CBK283859] | 122.201% |
| O=C(O)CCn1cc(Br)c([N+](=O)[O-])n1 [CBK286916] | 109.331% |
| Cc1ccccc1COc1cccc(Cl)c1Cl [CBK002607] | 116.271% |
| Cc1cc2c(o1)c1cnn(CC(=O)N3CCCCCC3)c(=O)c1n2C [CBK284219] | 164.466% |
| CCN1C(=O)C2(CC(=O)N(CCOC)C2=O)c2cc(Cl)ccc21 (centres unmarked) [CBK075244] | 80.0627% |
| COc1cccc(Sc2cc(N3CCCC3)ncn2)c1 [CBK089533] | 105.123% |
| Cc1cc(CC(=O)N2CCN(c3ncccn3)CC2)on1 [CBK144507] | 106.785% |
| CC(CC(=O)O)CC(=O)N1CCN(c2ccccn2)CC1 (centres unmarked) [CBK286839] | 115.146% |
| Nc1ncc(-c2ccco2)nc1NC1CCOCC1 [CBK063806] | 115.222% |
| COc1cccc(C(=O)NCCC(=O)N2CCc3ccccc3C2)c1 [CBK307575] | 153.3% |
| Cc1nn(C)cc1-c1cncn1Cc1ccc2c(c1)CCCO2 [CBK281797] | 112.201% |
| COc1ccc(C(NC(C)=O)c2nccc3cc(OC)c(OC)cc23)cc1OC (centres unmarked) [CBK270219] | 137.741% |
| Cc1nn(-c2ccccc2)c2c1C(C(=O)c1ccc3c(c1)OCO3)CC(=O)N2 (centres unmarked) [CBK294436] | 136.979% |
| CCN(CC(=O)NCc1cccnc1)S(=O)(=O)c1ccc(F)cc1 [CBK269503] | 127.192% |
| O=S(=O)(NC1c2cccc3cccc(c23)C1Sc1ncccn1)c1ccccc1 (centres unmarked) [CBK264706] | 91.7662% |
| Cc1cccc(C(=O)Oc2ccc(C(c3c(C)n[nH]c3O)c3c(C)n[nH]c3O)cc2)c1 [CBK264804] | 124.514% |
| Cc1ccc(S(=O)(=O)N(CC(=O)NCc2ccco2)c2cccc(C)c2)cc1 [CBK264125] | 110.154% |

| SMILES | % of control remaining |
| --- | --- |
| CC1(O)CCN(Cc2nnnn2-c2ccc(S(C)(=O)=O)cc2)CC1 [CBK304166] | 108.299% |
| Cc1ccc(-c2nnc(CNC(=O)c3cccc(Cl)c3)o2)s1 [CBK284646] | 154.043% |
| O=C(O)c1ccc(S(=O)(=O)c2ccc(O)cc2)cc1 [CBK261411] | 96.0951% |
| Cn1cc(-c2nccnc2OCc2ccccn2)cn1 [CBK107067] | 97.4252% |
| CC(=O)N1CCC(C(=O)NCCc2cccc(C)c2)C1 (centres unmarked) [CBK281952] | 105.135% |
| COc1ccc(NC(=O)c2cc3nc(C)ccc3o2)cc1 [CBK287663] | 108.831% |
| COc1ccc(S(=O)(=O)NC[C@H]2C[C@@H]3CC[N@]2C[C@@H]3CN2CCCCC2)cc1 [CBK288764] | 127.861% |
| CCC1C(=O)NCCN1C(=O)Cc1cccc2cccnc12 (centres unmarked) [CBK281728] | 112.783% |
| c1cncc(Nc2cccc(-c3ccco3)n2)c1 [CBK037742] | 178.617% |
| Cc1ccc(Nc2nc(N3CCOCC3)nc3nccnc23)cc1 [CBK287664] | 126.276% |
| CN(C)CCCn1c(=O)[nH]c2sc3c(c2c1=N)CC(C)(C)OC3 [CBK269103] | 104.744% |
| COc1ccc(NC(=O)N[C@H]2C[C@H]3C(=O)N[C@H](Cc4ccccc4)C(=O)N3C2)cc1 [CBK289227] | 144.38% |
| CCc1nn(CC(=O)N2CCCC2)c(=O)c2cc3sc(C)cc3n12 [CBK284122] | 144.227% |
| COc1ccc(C(=O)Nc2c(C)nn(-c3ccccc3)c2C)cc1S(=O)(=O)NC1CC1 [CBK297906] | 129.601% |
| CN(C)CCN(C)C(=O)c1cc(-c2ccc(Cl)cc2)[nH]n1 [CBK115928] | 100.215% |
| Cc1cc(NS(=O)(=O)c2cc(C(F)(F)F)cc(C(F)(F)F)c2)n(C)n1 [CBK067261] | 97.4971% |
| Cc1cc(C)n(CCOc2nonc2N)n1 [CBK025818] | 105.007% |
| O=C(CSCc1c(Cl)cccc1Cl)Nc1cccc(-c2nnc(-c3ccccc3)o2)c1 [CBK267435] | 125.902% |
| Cc1cccnc1Nc1ccc(C2CCCN(C(=O)Cc3c[nH]c4ccccc34)C2)nc1 (centres unmarked) [CBK285968] | 102.03% |
| CCN(CC)C(=O)CN1C(=O)N2CCN=C2c2ccccc21 [CBK283944] | 119.673% |
| CCOc1ccc(-c2n[nH]c(C(=O)N/N=C3/C(=O)Nc4ccccc43)c2C)cc1 [CBK262889] | 108.575% |
| Cn1ccnc1C(NC(=O)c1ccccn1)c1ccc(F)c(F)c1 (centres unmarked) [CBK283783] | 156.184% |
| Cc1cnc(C(=O)N[C@H]2C3CCCCC3[C@@H]2c2ccccc2)cn1 (some centres unmarked) [CBK285125] | 108.592% |
| CCn1cc(C(=O)N2C[C@H](C(=O)OC)[C@@H](c3ccccc3F)C2)cn1 [CBK283510] | 136.355% |
| O=C(c1ccc(F)cc1)C1CCN(Cc2ccc3ccccc3c2)CC1 [CBK149122] | 139.308% |
| Cc1ccccc1CSCCNC(=O)Nc1ccc(Cl)cc1 [CBK268669] | 124.47% |
| CN1CCC(=NNC(=O)c2cc(O)c(O)c(O)c2)CC1 [CBK262660] | 141.915% |

Molecules above that contain a COOH group (5):

| SMILES | % of control remaining |
| --- | --- |
| COc1ccccc1C(=O)Nc1ccc(Cl)c(C(=O)O)c1 [CBK287034] | 154.343% |
| CC1(C#N)CCCN(Cc2c[nH]nc2C(=O)O)C1 (centres unmarked) [CBK307010] | 145.52% |
| O=C(O)CCn1cc(Br)c([N+](=O)[O-])n1 [CBK286916] | 109.331% |
| CC(CC(=O)O)CC(=O)N1CCN(c2ccccn2)CC1 (centres unmarked) [CBK286839] | 115.146% |
| O=C(O)c1ccc(S(=O)(=O)c2ccc(O)cc2)cc1 [CBK261411] | 96.0951% |

Further results:

| SMILES | % of control remaining |
| --- | --- |
| c1cncc(COc2cncc(OC3CCNC3)n2)c1 (centres unmarked) [CBK077419T] | 124.191% |
| O=S(=O)(c1ccccc1)c1nc(N2CCNCC2)cn2ccnc12 [CBK154875T] | 154.776% |
| Cc1ccnc(SCC(=O)c2cc(C)n(C3CC3)c2C)n1 [CBK304686] | 122.688% |
| CCCCN(C)c1c(CC)nc2ccc(C(=O)N3CCNC(=O)C3)cn12 [CBK145460] | 120.374% |
| CC(=O)Nc1ccc(-c2nc3ccc(-c4nc5ccc(NC(C)=O)cc5[nH]4)cc3[nH]2)cc1 [CBK261165] | 107.009% |
| CC(=O)Nc1nc(-c2cc3ccccc3oc2=O)cs1 [CBK287312] | 101.396% |
| CC(C)CC12CN3CCN(CC(C3)/C1=N\N=C1/C3CN4CCN(C3)CC1(CC(C)C)C4)C2 [CBK265036] | 86.3601% |
| O=S(=O)(Nc1nnn[nH]1)c1cccc2nsnc12 [CBK062379] | 132.021% |
| CN(C)S(=O)(=O)c1ccc(C(=O)Nc2ccc(N3CCOCC3)c(Cl)c2)cc1 [CBK267383] | 156.401% |
| Cc1cc(CN2CCCC2)cc(C)c1O [CBK028736C] | 99.1609% |
| COCOc1ccc(-c2ncc(OC)nc2NC(=O)c2cc3ccccc3s2)cc1 [CBK145250] | 113.384% |
| COc1cccc(Oc2nccnc2-c2ccsc2)c1 [CBK106762] | 97.842% |
| COCc1cccc(-c2ncc(OC)nc2NC(=O)c2c(C)noc2C)c1 [CBK145237] | 92.3675% |
| O=C(c1cccc(C(F)(F)F)c1)N1CCN(C(=O)c2ccc3c(c2)CCC3)CC1 [CBK298300] | 160.084% |
| CCC(C(=O)Nc1nccs1)N(C)Cc1c(C)nn(C(C)C)c1C (centres unmarked) [CBK307402] | 106.526% |
| COc1ccc(-c2cc(C(=O)Nc3nc4ccc(S(C)(=O)=O)cc4s3)c3ccccc3n2)cc1 [CBK033551] | 110.835% |
| O=C(O)c1cnc(NCC2CCCCCC2)[nH]c1=O [CBK023792] | 90.8644% |
| CCN(CCO)c1ccc(Nc2nc(Br)cn3ccnc23)cc1 [CBK037475] | 150.641% |
| O=C(c1cnc2ccccc2n1)N1CCC(F)CC1 [CBK200264] | 180.355% |
| CC(=O)NCC(=O)N1CCC2(CC1)CC(=O)c1cc(Br)ccc1O2 [CBK156447] | 89.4302% |
| COc1ccc(-c2nc(NC(=O)C3CCC(OC)CC3)cnc2-c2ccc(F)cc2)cc1 (centres unmarked) [CBK037004] | 124.19% |
| COCCn1c(CO)nnc1[C@H]1C[C@H](NC(=O)c2ccc(F)cc2F)C1 [CBK306665] | 155.647% |
| O=C(CSc1nc[nH]n1)Nc1ccc(-c2nc3ccccc3s2)cc1 [CBK267146] | 167.304% |
| CCC(=O)N1CCCC1c1nc(C)c2c(n1)N(Cc1ccc(F)cc1)CCC2 (centres unmarked) [CBK286247] | 127.171% |
| Cc1nccn1CCNC(=O)c1c2c(nn1C)CCCC2 [CBK281857] | 120.565% |
| N/C(=N\OCC(=O)Nc1ccc(-n2cnnn2)cc1)c1nonc1N [CBK265331] | 114.588% |
